According to patent US12686673B2 (Blueprint Medicines Corporation, priority 2020, dated 2026):
The match of structure and compound is tentative.

Sequences of proteins named here, by UniProt entry; tags and fusion partners are left off. A line that says so, or that is headed by a name, gives the form on record, which may keep a tag or linker.
UniProt P04626, with tags, fused parts or gaps DUP772-775: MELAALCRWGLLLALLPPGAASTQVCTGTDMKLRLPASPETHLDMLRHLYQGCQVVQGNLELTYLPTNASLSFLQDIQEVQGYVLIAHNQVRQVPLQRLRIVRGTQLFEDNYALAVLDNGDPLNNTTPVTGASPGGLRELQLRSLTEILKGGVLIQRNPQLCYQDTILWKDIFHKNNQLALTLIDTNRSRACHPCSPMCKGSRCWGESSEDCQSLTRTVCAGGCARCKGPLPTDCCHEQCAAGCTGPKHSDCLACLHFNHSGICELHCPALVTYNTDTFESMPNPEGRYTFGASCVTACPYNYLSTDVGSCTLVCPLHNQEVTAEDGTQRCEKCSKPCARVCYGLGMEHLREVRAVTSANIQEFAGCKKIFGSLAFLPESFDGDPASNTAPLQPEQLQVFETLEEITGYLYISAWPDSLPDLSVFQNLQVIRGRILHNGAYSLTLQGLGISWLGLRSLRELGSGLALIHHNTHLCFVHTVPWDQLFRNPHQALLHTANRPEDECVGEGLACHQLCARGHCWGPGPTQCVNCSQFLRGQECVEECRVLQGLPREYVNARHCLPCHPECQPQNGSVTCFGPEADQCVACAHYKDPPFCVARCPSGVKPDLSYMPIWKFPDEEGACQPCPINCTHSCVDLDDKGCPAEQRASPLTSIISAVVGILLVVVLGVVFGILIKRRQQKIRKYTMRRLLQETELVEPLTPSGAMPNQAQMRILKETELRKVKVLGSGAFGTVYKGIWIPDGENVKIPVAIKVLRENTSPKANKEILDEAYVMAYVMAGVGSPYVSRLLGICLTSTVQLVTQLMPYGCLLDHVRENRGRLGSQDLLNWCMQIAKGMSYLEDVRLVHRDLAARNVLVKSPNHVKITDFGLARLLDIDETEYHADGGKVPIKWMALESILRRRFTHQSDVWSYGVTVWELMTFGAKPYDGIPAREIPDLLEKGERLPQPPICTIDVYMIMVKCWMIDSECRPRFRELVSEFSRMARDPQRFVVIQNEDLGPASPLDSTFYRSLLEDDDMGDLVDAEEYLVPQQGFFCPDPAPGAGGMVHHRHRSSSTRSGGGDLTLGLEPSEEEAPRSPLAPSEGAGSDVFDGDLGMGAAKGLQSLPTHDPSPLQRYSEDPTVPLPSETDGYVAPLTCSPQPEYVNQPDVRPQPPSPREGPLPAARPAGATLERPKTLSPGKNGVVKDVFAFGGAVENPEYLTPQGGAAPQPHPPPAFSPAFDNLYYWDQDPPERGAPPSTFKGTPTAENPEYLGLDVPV
UniProt P00533, with tags, fused parts or gaps DUP767-769: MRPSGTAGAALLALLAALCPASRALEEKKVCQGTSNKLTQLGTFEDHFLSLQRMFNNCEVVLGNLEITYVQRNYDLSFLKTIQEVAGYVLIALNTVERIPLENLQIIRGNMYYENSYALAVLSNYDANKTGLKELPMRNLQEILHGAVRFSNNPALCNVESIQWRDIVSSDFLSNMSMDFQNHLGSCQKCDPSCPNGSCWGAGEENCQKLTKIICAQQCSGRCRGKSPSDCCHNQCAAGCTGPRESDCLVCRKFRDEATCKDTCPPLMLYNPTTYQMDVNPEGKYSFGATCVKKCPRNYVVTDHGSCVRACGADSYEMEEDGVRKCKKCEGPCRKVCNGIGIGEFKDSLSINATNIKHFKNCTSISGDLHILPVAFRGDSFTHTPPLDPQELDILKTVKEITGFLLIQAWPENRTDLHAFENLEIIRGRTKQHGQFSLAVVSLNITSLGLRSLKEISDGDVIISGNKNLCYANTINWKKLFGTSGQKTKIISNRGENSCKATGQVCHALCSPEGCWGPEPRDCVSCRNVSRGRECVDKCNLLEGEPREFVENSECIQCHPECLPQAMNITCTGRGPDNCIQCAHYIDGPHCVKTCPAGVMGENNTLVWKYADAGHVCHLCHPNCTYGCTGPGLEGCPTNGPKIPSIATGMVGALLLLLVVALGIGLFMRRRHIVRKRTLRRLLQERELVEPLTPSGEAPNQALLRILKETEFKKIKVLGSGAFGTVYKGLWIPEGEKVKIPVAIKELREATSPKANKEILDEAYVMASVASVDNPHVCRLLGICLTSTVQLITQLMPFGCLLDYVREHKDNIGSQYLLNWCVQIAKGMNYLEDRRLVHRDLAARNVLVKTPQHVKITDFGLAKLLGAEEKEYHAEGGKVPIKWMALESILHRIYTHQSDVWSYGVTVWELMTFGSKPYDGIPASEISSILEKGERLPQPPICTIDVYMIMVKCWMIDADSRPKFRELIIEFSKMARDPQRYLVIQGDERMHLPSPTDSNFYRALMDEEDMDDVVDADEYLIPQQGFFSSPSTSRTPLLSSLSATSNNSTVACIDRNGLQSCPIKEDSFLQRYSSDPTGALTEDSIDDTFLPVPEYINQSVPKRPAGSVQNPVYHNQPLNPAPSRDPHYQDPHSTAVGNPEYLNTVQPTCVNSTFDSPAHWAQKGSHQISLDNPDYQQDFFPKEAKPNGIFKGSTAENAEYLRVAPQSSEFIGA
UniProt P00533, with tags, fused parts or gaps DUP768-770: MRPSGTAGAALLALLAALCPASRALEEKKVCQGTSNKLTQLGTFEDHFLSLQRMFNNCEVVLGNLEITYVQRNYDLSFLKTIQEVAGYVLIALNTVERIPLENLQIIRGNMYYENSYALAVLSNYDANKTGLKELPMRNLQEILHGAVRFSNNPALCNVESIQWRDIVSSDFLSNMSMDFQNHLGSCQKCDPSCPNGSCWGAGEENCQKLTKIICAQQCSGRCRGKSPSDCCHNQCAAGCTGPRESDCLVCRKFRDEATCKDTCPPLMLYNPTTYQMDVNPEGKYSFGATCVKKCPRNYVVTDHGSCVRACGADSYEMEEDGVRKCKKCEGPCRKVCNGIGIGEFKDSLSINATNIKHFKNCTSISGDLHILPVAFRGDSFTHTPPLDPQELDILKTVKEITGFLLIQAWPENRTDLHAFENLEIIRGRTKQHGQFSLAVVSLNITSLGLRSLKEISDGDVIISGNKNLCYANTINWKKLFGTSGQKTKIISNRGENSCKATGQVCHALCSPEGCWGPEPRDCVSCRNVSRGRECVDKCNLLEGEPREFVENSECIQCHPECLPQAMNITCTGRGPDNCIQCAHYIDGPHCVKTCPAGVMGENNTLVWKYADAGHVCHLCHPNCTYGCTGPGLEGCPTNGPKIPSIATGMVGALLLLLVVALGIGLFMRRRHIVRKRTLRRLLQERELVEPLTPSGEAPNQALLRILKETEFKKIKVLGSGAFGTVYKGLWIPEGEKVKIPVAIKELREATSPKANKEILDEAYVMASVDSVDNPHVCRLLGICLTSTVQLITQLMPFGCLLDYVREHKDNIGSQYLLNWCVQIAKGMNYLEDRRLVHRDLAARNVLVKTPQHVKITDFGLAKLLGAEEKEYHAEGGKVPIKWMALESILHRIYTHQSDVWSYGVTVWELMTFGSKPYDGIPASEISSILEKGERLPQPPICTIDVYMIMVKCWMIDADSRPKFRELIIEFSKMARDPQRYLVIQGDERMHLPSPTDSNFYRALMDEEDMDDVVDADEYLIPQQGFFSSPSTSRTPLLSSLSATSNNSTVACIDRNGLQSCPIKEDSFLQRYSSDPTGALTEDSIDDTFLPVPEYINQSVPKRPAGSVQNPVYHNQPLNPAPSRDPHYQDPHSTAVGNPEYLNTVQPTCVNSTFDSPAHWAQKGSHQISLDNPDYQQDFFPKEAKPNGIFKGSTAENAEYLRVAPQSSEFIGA

Columns and labels:
Type in all cases: cell-based
[1] = target: HER2 (A775_G776insYVMA) expressing Ba/F3 stable cell line (Homo sapiens, UniProt P04626, DUP772-775, cells depend on it); assay: Cellular proliferation (Alamar Blue) assay, HER2 A775_G776insYVMA Ba/F3; settings: read-out: YVMA IC50, 72 hr, tested form: TFA
[2] = target: EGFR(D770_N771insSVD) expressing Ba/F3 stable cell line (Homo sapiens, UniProt P00533, DUP768-770, cells depend on it); assay: Cellular proliferation (Alamar Blue) assay, EGFR D770_N771insSVD Ba/F3; settings: read-out: D770 IC50, 72 hr, tested form: TFA
[3] = target: EGFR (A767_dupASV) expressing Ba/F3 stable cell line (Homo sapiens, UniProt P00533, DUP767-769, cells depend on it); assay: Cellular proliferation (Alamar Blue) assay, EGFR A767_dupASV Ba/F3; settings: read-out: A767 IC50, 72 hr, tested form: TFA
[4] = tested on: A431 cells; assay: Cellular proliferation (Alamar Blue) assay, A431; settings: read-out: A431 IC50, 72 hr, tested form: TFA

Structure (SMILES) | GI50 [1] [nM] | GI50 [2] [nM] | GI50 [3] [nM] | IC50 [4] [nM]
C=CC(=O)Nc1ccc(F)c(Nc2nc(Nc3cnn(C)c3)ncc2-c2ccccc2Cl)c1 [Compound 150, N-(3-((5-(2-chlorophenyl)-2-((1-methyl-1H-pyrazol-4-yl)amino)pyrimidin-4-yl)amino)-4-fluorophenyl)acrylamide 2,2,2-trifluoroacetate] | 2140 | – | – | –
C=CC(=O)Nc1ccc(F)c(Nc2nc(Nc3cnn(CCOC)c3)ncc2-c2ccc(C(F)(F)F)cc2)c1 | – | 113 | 441 | 98
